Source: PMC9106359
Results are given in words; binding and its absence hold for the method and conditions named. Binding seen in cells or lysates may run through a third protein. Binding calls can cover weak binding; strength is not graded here. Tags and fused reporters may be left off the sequences shown.

Target: T1, MYC-SR-A1 (in HEK293 cells) (UniProt P30204)
T1 sequence: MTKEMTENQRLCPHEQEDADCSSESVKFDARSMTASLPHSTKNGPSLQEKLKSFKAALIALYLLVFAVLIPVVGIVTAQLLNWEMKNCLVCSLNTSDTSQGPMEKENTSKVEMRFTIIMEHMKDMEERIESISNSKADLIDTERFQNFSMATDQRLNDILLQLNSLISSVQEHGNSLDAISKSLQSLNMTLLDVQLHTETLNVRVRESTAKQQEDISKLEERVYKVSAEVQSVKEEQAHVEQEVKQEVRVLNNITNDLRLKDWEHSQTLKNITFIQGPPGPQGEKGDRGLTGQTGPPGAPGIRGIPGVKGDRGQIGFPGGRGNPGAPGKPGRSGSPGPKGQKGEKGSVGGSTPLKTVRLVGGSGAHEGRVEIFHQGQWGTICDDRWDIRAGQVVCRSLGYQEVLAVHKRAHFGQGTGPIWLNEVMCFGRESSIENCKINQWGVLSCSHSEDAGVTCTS
Test: co-IP; HEK293 cells cotransfected with the FLAG-tagged N/M/C1/C2 fragments of USP9X and MYC-SR-A1; IP of whole cell lysates with MYC magnetic beads

binding	Substance
no binding	FLAG-tagged USP9X fragment N (the N-terminus containing the α-α supercoil structure) (domain or fragment)
no binding	FLAG-tagged USP9X fragment C1 (containing the ubiquitin-specific protease domain) (domain or fragment)
binds	FLAG-USP9X-M (the middle region of USP9X) (domain or fragment)
